Source: PubChem BioAssay AID2685 (National Center for Advancing Translational Sciences (NCATS), 2010)
Among all 320,000 compounds or so, about 2,100 (0.66%) were called active. The shares of active, inactive and inconclusive entries below differ from those in the screen. Calls follow the shape of the dose curve; as a rule, active = well fitted inhibition curve with a large enough effect in the signal ratio, with a control signal flat (not every such curve was filed as active); inconclusive = small, poorly fitted or top-dose-only effect, or effect the other way, or a change in a side signal; inactive = flat fitted curve, though single readings scatter; the % refers to the signal ratio. Potencies beside an inconclusive call are fits to weak or partial responses and may not hold up.

Test: qHTS Assay for Lipid Storage Modulators in Drosophila S3 Cells
Settings: BODIPY lipid droplet fluorescence, 18-24 h, cells fed with added oleic acid; lipid storage change, negative = inhibition: at 46.1 µM (top of the series) unless noted
Outline: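 Drosophila S3 cells got compounds at several concentrations plus oleic acid (400 uM solution). Laser-scanning cytometry with 488 nm excitation read lipid droplets at 500-530 nm and cells at 575-640 nm. Percent activity was relative to 20 uM Triacsin C.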
% is scaled to controls: 0 for no effect and ±100 for the full control effect; potency is read from the fitted curve at half-maximal effect.

Row | Compound | lipid storage change, negative = inhibition | Potency
1 | Cn1cnnc1SCC(=O)Nc1cc(S(=O)(=O)N2CCCCCC2)ccc1Cl | inconclusive: 17.1% | 
2 | CC(Oc1cccc(Cl)c1)C(=O)Nc1cc(S(=O)(=O)N2CCOCC2)ccc1N1CCCCC1 (stereo not drawn) | inconclusive | 
3 | CC(C)CC(c1nnnn1C(C)C)N1CCN(c2ccccc2)CC1 (stereo not drawn) | inconclusive: -6.4% | 
4 | COc1ccccc1NS(=O)(=O)c1cccc(C(=O)NNC(=O)c2ccc(NC(C)=O)cc2)c1 | inconclusive: 31.4% | 
5 | Cc1ccccc1-c1nnn(Cc2ccc(F)cc2Cl)n1 | inconclusive: 22.5% | 
6 | CCn1c(=O)cc(SCC(=O)N2CCN(C3CCCCC3)CC2)c2ccccc21 |  | inconclusive: 10.3 µM [rising, partial curve]
7 | NC(=O)c1cnn2c(C(F)(F)F)cc(-c3ccccc3)nc12 |  | inconclusive: 0.651 µM [activator, partial curve, poor fit]
8 | Cc1ccc(CCNS(=O)(=O)c2ccc3c(c2)NC(=O)CCS3)cc1 |  | inconclusive: 29.1 µM [activator, single point]
9 | CCOC(=O)CSc1nnc(-c2nnc(SCC(=O)OCC)n2CC)n1CC | inconclusive: 11% | 
10 | C=CCNC(=S)N1CCN(S(=O)(=O)c2ccc(C)cc2)CC1 | inconclusive: 9.69% | 
11 | CC1CC1C(=O)OCC(=O)Nc1cccc(F)c1 (stereo not drawn) | inconclusive: 8.42% | 
12 | NC(=O)CSc1nnc(COc2ccccc2)n1C1CCCCC1 | inconclusive: 19.4% | 
13 | CC(C)OCCCNC(=O)CCSc1ccc(Cl)cc1 |  | inconclusive: 0.184 µM [falling, full curve, poor fit]
14 | O=C(Nc1ccc2c(c1)OCCO2)c1cc(-n2cnnc2)ccc1Cl |  | inconclusive: 16.4 µM [activator, single point]
15 | Cn1c(=O)c2c(ncn2CC(=O)Nc2cccc(S(=O)(=O)Nc3ccccc3F)c2)n(C)c1=O | inconclusive: 14.6% | 
16 | CNC(=O)COC(=O)CCC(=O)c1ccc(Cl)cc1 | inconclusive: 29.2% | 
17 | COc1ccc(NC(=O)CSc2ncnc3c2cnn3Cc2ccccc2)cc1 |  | inconclusive: 20.6 µM [activator, partial curve]
18 | O=C(CNC(=O)c1ccccc1)c1ccccc1 | inconclusive: -22.3% | 
19 | COC(=O)c1ccc(CNS(=O)(=O)c2ccc3ccccc3c2)cc1 | inconclusive: -10.2% | 
20 | CC1CCC2(CC1)NC(=O)N(NC(=O)C1CCN(C(=O)c3ccc(Cl)cc3)CC1)C2=O (stereo not drawn) |  | inconclusive: 6.51 µM [activator, single point]
21 | O=C(Nc1ccc(F)cc1F)C1CCN(c2ncnc3c2sc2cccc(F)c23)CC1 | inconclusive: 36.6% | 
22 | COC(=O)c1c(NC(=O)c2ccc([N+](=O)[O-])o2)sc2c1CCN(C(C)C)C2 | inconclusive: -18.3% | 
23 | Cc1cccc(N2Cc3ccccc3C2=NC(=O)c2ccc(Cl)nc2)c1 |  | inconclusive: 29.1 µM [activator, single point]
24 | CCCC(C(=O)NC1CCCC1)N(C(=O)Cn1nnc(-c2ccc(C)o2)n1)C1CCCC1 (stereo not drawn) | inconclusive: 46.1% | 
25 | COc1ccc(/C=C/C(=O)c2c(C)cc(C)[nH]c2=O)c2ccccc12 | inconclusive: -95.9% | 
26 | CCc1ccc(NC(=O)C2CCCN(S(=O)(=O)c3cccnc3)C2)cc1 (stereo not drawn) | inconclusive: 28.8% | 

Quoted from above: nos. 6 to 9
Row | Compound | lipid storage change, negative = inhibition | Potency
6 | CCn1c(=O)cc(SCC(=O)N2CCN(C3CCCCC3)CC2)c2ccccc21 |  | inconclusive: 10.3 µM [rising, partial curve]
7 | NC(=O)c1cnn2c(C(F)(F)F)cc(-c3ccccc3)nc12 |  | inconclusive: 0.651 µM [activator, partial curve, poor fit]
8 | Cc1ccc(CCNS(=O)(=O)c2ccc3c(c2)NC(=O)CCS3)cc1 |  | inconclusive: 29.1 µM [activator, single point]
9 | CCOC(=O)CSc1nnc(-c2nnc(SCC(=O)OCC)n2CC)n1CC | inconclusive: 11% | 

Remaining list, next part:

Row | Compound | lipid storage change, negative = inhibition | Potency
27 | O=C(COc1ccc([N+](=O)[O-])cc1)NC(=O)NC1CCS(=O)(=O)C1 (stereo not drawn) | inconclusive | 
28 | CNc1oc(C)nc1S(=O)(=O)c1ccccc1 |  | active: 32.6 µM
29 | Cc1csc(NC(=O)CSc2ccc(-c3ccc(F)cc3)nn2)n1 | inconclusive: -12.8% [at 9.22 µM] | 
30 | Cc1ccc(C(=O)NC(N(C)C)C(Cl)(Cl)Cl)cc1 (stereo not drawn) | inconclusive: 29.7% | 
31 | Cc1ccc(-n2c3c(cc(C(=O)N4CCN(C)CC4)c2=O)C(=O)CC(C)(C)C3)cc1 | inconclusive: -1.57% | 
32 | O=C(Cn1cc([N+](=O)[O-])cn1)Nc1ccccn1 | inconclusive: -6.59% | 
33 | Cc1ccc2cc(CCNC(=O)CCCc3ccccc3)c(=O)[nH]c2c1C |  | inconclusive: 6.51 µM [activator, single point]
34 | CC1Nc2ncnc(N3CCN(c4ccccn4)CC3)c2N(Cc2ccccc2)C1=O (stereo not drawn) | inconclusive: 26.4% | 
35 | CCOC(=O)C1CCCN(CC(=O)Nc2c(C(=O)OC)[nH]c3ccc(C)cc23)C1 (stereo not drawn) | inconclusive: 34.6% | 
36 | CCCCN(C)S(=O)(=O)c1ccc(C(=O)Nc2nnc(C3=COCCO3)o2)cc1 | inconclusive: -0.497% | 
37 | CN(C)c1cc[n+](CCC(=O)Nc2cccc([N+](=O)[O-])c2N)cc1 |  | inconclusive: 6.51 µM [falling, single point]
38 | CCOc1cc2[nH]c(=S)n(CCCOC)c(=O)c2cc1OCC | inconclusive: 74.5% | 
39 | O=C(Nc1ccccc1)C1CC(=O)N(Cc2ccccc2)C1 (stereo not drawn) | inconclusive: 5.42% | 
40 | C=CCn1c(CSc2ccc(C)cc2)n[nH]c1=S |  | inconclusive: 25.9 µM [activator, partial curve, poor fit]
41 | CCc1cc(C(=O)N2CCN(c3ccccc3OC)CC2)sc1C |  | inconclusive: 5.8 µM [falling, full curve]
42 | COc1ccc(-n2nc(C(=O)NCC(=O)NC3CCCCCC3)c3ccccc3c2=O)cc1OC | inconclusive: -4.01% | 
43 | COC(=O)N/N=C/c1cc(Cl)cc(Cl)c1OCc1ccccc1F | inconclusive: -1.14% | 
44 | Cc1ccc2nc(C)cc(Cl)c2c1 | inconclusive: -17.1% | 
45 | Cc1cc(C)cc(Oc2nc3c(C)cccn3c(=O)c2/C=C(\C#N)C(=O)NC2CCS(=O)(=O)C2)c1 (stereo not drawn) | inconclusive: -52.9% | 
46 | Cc1cccc(C)c1N1CCN(C(=O)Cn2cncn2)CC1 | inconclusive: 41.7% | 
47 | O=S(=O)(NCC1CCCN(Cc2ccccc2O)C1)c1cccc2cccnc12 (stereo not drawn) | inconclusive: -0.341% | 
48 | Cc1sc(NC(=O)c2cccnc2)nc1-c1ccccc1 | inconclusive: 12.7% [cytotoxic] | 
49 | CCCCCCSc1cc(-c2nc3ccc(C)cn3c2NCc2ccccc2)ccc1OC |  | inconclusive: 29.1 µM [falling, single point]
50 | Cc1c(S(=O)(=O)Nc2ccc(Oc3ccccc3)cc2)c(=O)n(C)c(=O)n1C | inconclusive: -32.2% | 
51 | Cc1ccc2nc(SCC(=O)Nc3cccc([N+](=O)[O-])c3)[nH]c2c1 | inconclusive: -18.6% | 
52 | CCOC(=O)C1(CCOC)CCN(Cc2ccc(C3CCCCO3)s2)CC1 (stereo not drawn) | inactive | 

Row | Compound | lipid storage change, negative = inhibition | Potency
53 | O=C(N/N=C/c1ccc2ncccc2c1)c1cc(-c2cccs2)nc2ccccc12 | inconclusive: 25.7% | 
54 | COc1ccc(-c2csc(N(CC(C)C)C(=O)c3ccco3)n2)cc1 | inconclusive: 6.82% | 
55 | COc1cc(NC(=O)COC(=O)Cn2cnc3c2c(=O)n(C)c(=O)n3C)cc(OC)c1 | inconclusive: 20.1% | 
56 | CC(=O)CC1=NC(C)(C)Cc2ccccc21 | inconclusive: -10.3% | 
57 | COc1ccc(OCC(=O)N2CCN(c3cccc(C(F)(F)F)c3)CC2)cc1 | inconclusive: 3.76% | 
58 | CC(C)c1ccc(CNc2cc(N3CCCC3)ccc2[N+](=O)[O-])cc1 | inconclusive: -48.7% | 
59 | COC(=O)c1ccc(OCC(=O)c2ccccc2)cc1 |  | inconclusive: 29.1 µM [falling, partial curve, poor fit]
60 | Cc1cc(NS(C)(=O)=O)c(=O)n(Cc2c(F)cccc2Cl)c1 | inconclusive: 29.8% | 
61 | CC(=O)c1cc(C#N)c(N2CCCC2)nc1C | inconclusive: -22% | 
62 | Cc1nn(-c2ccccc2)c(C)c1C(=O)OC/C(O)=C(\C#N)c1nc2ccccc2[nH]1 | inconclusive: 17.3% | 
63 | O=C1CSCC(=O)N1c1ncc(C(F)(F)F)cc1Cl |  | inconclusive: 13 µM [activator, single point]
64 | Cc1ccc(NC(=O)CCc2nnc3ccc(N4CCOCC4)nn23)cc1C | inconclusive: 15.2% | 
65 | CCCCC(=O)NC(c1ccc([N+](=O)[O-])cc1)c1c(O)ccc2ccccc12 (stereo not drawn) |  | inconclusive: 0.146 µM [falling, full curve, poor fit]
66 | N#C/C(=C\c1ccccc1Br)C(=O)NC1CC1 |  | inconclusive: 13 µM [activator, partial curve]
67 | O=C(Cc1c(Cl)cccc1Cl)Nc1ccc(S(=O)(=O)Nc2ncccn2)cc1 | inactive | 
68 | Cc1cc[n+](-c2nc([O-])sc2/C=N/Nc2ccc([N+](=O)[O-])cc2)cc1 | inconclusive: -0.871% | 
69 | O=C1CCCc2nc(N3CCN(C(=O)c4ccco4)CC3)ncc21 | inconclusive: -33.2% | 
70 | Cc1cc(C(=O)O)n(C(C)(C)C)n1 | inconclusive: 15% | 
71 | COc1ccc(OC)c(CCNC(=O)Cn2nc(C)c3c(C)n(-c4ccccc4)nc3c2=O)c1 |  | inconclusive: 9.2 µM [falling, partial curve, poor fit]
72 | CC12CC3CC(C)(C1)CC(C(=O)N1CCCC1)(C3)C2 |  | inconclusive: 2.59 µM [activator, partial curve]
73 | CC(=O)c1ccc(NC(=O)CN2C(=O)/C(=C/C=C/c3ccccc3)SC2=S)cc1 | inconclusive: -2.24% | 
74 | Cc1ccc(C)c(-n2c(SCC(=O)Nc3nonc3C)nnc2-c2ccoc2C)c1 | inconclusive: -33.7% | 
75 | COc1ccccc1OCCC(=O)OCC(=O)c1c(N)n(C)c(=O)n(C)c1=O | inconclusive: 3.41% | 
76 | CC1(C)C(C=C(Cl)Cl)C1C(=O)N/N=C/c1ccccc1F (stereo not drawn) |  | inconclusive: 29.1 µM [falling, single point]
77 | Nc1cccc(C(=O)OCC(=O)c2ccccc2)c1 | inconclusive: 20.9% | 
78 | CCOC(=O)Nc1ccc2c(c1)N(C(=O)CCN1CCOCC1)c1ccccc1S2 |  | inconclusive: 2.31 µM [activator, single point]
